{"source": "PubChem BioAssay AID686943 – Drosophila RNAi Screening Center, 2013", "screen": "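Fly genes whose loss alters ERK activation after insulin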 (primary screen)", "cell system": "Drosophila S2R+ haemocyte-like cells expressing YFP-tagged ERK (Rolled)", "reagents": "long dsRNA against Drosophila genes", "conditions": "insulin stimulation versus unstimulated cells; dose and duration not given", "measurement": "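Per-plate z-scores of phospho-ERK immunostaining normalised to YFP-tagged ERK, measured with and without insulin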", "scale": "replicate 1, z-score of dpERK with insulin and replicate 2, z-score of dpERK with insulin: higher = more active ERK per ERK-YFP after insulin", "note": "The screen tested about 23,000 reagents; below is a random part of those with a known target gene and a result. 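Extra replicates exist only for a retested subset of genes; insulin dose and duration not given; both raised and lowered dpERK matter.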 Further read-outs or replicates are left out here. Reagent sequences are not shown. Not given: the amount of reagent, the time to read-out."}
{"target": "CG11563", "amplicon": "DRSC14327", "replicate 1, z-score of dpERK with insulin": -0.41, "replicate 2, z-score of dpERK with insulin": 1.24}
{"target": "CG12024", "amplicon": "DRSC08229", "replicate 1, z-score of dpERK with insulin": 1.69, "replicate 2, z-score of dpERK with insulin": 1.78}
{"target": "Pp2B-14D", "amplicon": "DRSC20270", "replicate 1, z-score of dpERK with insulin": -1.56, "replicate 2, z-score of dpERK with insulin": -0.31}
{"target": "Vha36-2", "amplicon": "DRSC06294", "replicate 1, z-score of dpERK with insulin": -0.14, "replicate 2, z-score of dpERK with insulin": 0.08}
{"target": "Lk", "amplicon": "DRSC10022", "replicate 1, z-score of dpERK with insulin": 0.99, "replicate 2, z-score of dpERK with insulin": 0.78}
{"target": "CG15056", "amplicon": "DRSC19630", "replicate 1, z-score of dpERK with insulin": 0.05, "replicate 2, z-score of dpERK with insulin": 0.15}
{"target": "CG15601", "amplicon": "DRSC19670", "replicate 1, z-score of dpERK with insulin": 0.12, "replicate 2, z-score of dpERK with insulin": 0.55}
{"target": "CG5342", "amplicon": "DRSC15776", "replicate 1, z-score of dpERK with insulin": 0.14, "replicate 2, z-score of dpERK with insulin": 0.26}
{"target": "pHCl-2", "amplicon": "DRSC14306", "replicate 1, z-score of dpERK with insulin": 1.41, "replicate 2, z-score of dpERK with insulin": -0.05}
{"target": "Gr77a", "amplicon": "DRSC11446", "replicate 1, z-score of dpERK with insulin": -0.25, "replicate 2, z-score of dpERK with insulin": 1.06}
{"target": "CG8195", "amplicon": "DRSC07103", "replicate 1, z-score of dpERK with insulin": -0.04, "replicate 2, z-score of dpERK with insulin": 0.66}
{"target": "Mettl14", "amplicon": "DRSC03073", "replicate 1, z-score of dpERK with insulin": 0.21, "replicate 2, z-score of dpERK with insulin": -0.67}
{"target": "Or9a", "amplicon": "DRSC18692", "replicate 1, z-score of dpERK with insulin": 1.08, "replicate 2, z-score of dpERK with insulin": 0.19}
{"target": "CG1789", "amplicon": "DRSC18140", "replicate 1, z-score of dpERK with insulin": 0.01, "replicate 2, z-score of dpERK with insulin": 0.18}
{"target": "stmA", "amplicon": "DRSC05120", "replicate 1, z-score of dpERK with insulin": -0.17, "replicate 2, z-score of dpERK with insulin": 0.9}
{"target": "stmA", "amplicon": "DRSC07593", "replicate 1, z-score of dpERK with insulin": -0.76, "replicate 2, z-score of dpERK with insulin": -0.11}
{"target": "stmA", "amplicon": "DRSC22179", "replicate 1, z-score of dpERK with insulin": -0.19, "replicate 2, z-score of dpERK with insulin": 0.06}
{"target": "PIG-S", "amplicon": "DRSC14643", "replicate 1, z-score of dpERK with insulin": -0.34, "replicate 2, z-score of dpERK with insulin": -0.31}
{"target": "PIG-S", "amplicon": "DRSC15388", "replicate 1, z-score of dpERK with insulin": 0.7, "replicate 2, z-score of dpERK with insulin": 0.61}
{"target": "PIG-S", "amplicon": "DRSC15952", "replicate 1, z-score of dpERK with insulin": 0.24, "replicate 2, z-score of dpERK with insulin": 0.2}
{"target": "holn1", "amplicon": "DRSC02827", "replicate 1, z-score of dpERK with insulin": -0.22, "replicate 2, z-score of dpERK with insulin": 0.38}
{"target": "holn1", "amplicon": "DRSC22822", "replicate 1, z-score of dpERK with insulin": -0.1, "replicate 2, z-score of dpERK with insulin": -0.06}

A portion taken from the entries so far, for reference:
{"target": "stmA", "amplicon": "DRSC05120", "replicate 1, z-score of dpERK with insulin": -0.17, "replicate 2, z-score of dpERK with insulin": 0.9}
{"target": "stmA", "amplicon": "DRSC07593", "replicate 1, z-score of dpERK with insulin": -0.76, "replicate 2, z-score of dpERK with insulin": -0.11}
{"target": "stmA", "amplicon": "DRSC22179", "replicate 1, z-score of dpERK with insulin": -0.19, "replicate 2, z-score of dpERK with insulin": 0.06}
{"target": "PIG-S", "amplicon": "DRSC14643", "replicate 1, z-score of dpERK with insulin": -0.34, "replicate 2, z-score of dpERK with insulin": -0.31}
